Growth data for 20 compounds are collected here from the supplement of paper PMC10470496.

Test systems include C. auris AR-384; C. auris AR-386; C. auris AR-387.
Common to all, as to experiment: growth relative to vehicle control (OD600 ratio) (fraction); higher = less inhibition
What all share (conditions): 24 h

Structures can show the parent of a compound that is named as a salt. The list shows a part of the results. Single values are uncertain, as repeats are few or missing.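 The strains were three CDC resistance-bank clinical C. auris isolates from clades III, IV and I, cultured in RPMI-1640 at 35°C. Growth was background-corrected OD600 versus vehicle-only wells on the same plate. A hit needed >50% inhibition in two or more strains plus a plate-corrected B-score exceeding 0.1.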

In the case of `C=C1/C(=C\C=C2/CCC[C@]3(C)[C@@H]([C@H](C)/C=C/[C@@H](O)C4CC4)CC[C@@H]23)C[C@@H](O)C[C@@H]1O` [Calcipotriene], the growth in the experiment on C. auris AR-384 (1 µM) is 0.92; in the experiment on C. auris AR-384 (10 µM) it was 1.37; in the experiment on C. auris AR-386 (1 µM) it was 0.78; in the experiment on C. auris AR-386 (10 µM), 1.25; with C. auris AR-387 (1 µM), 0.98; in the experiment with C. auris AR-387 (10 µM), 1.3.

Take `O=C(O)c1ccc2c(c1)nc(Nc1cccc(Cl)c1)c1ccncc12` [Silmitasertib (CX-4945)]: the growth in the experiment with C. auris AR-384 (1 µM) worked out at 0.72; in the experiment on C. auris AR-384 (10 µM) it was 0.75; in the experiment on C. auris AR-386 (1 µM) it was 0.93; in the experiment with C. auris AR-386 (10 µM) it was 0.63; in the experiment on C. auris AR-387 (1 µM), 0.65; in the experiment on C. auris AR-387 (10 µM), 0.72.

As for `O=C1NC(=O)[C@@H](c2cn3c4c(cccc24)CCC3)[C@@H]1c1c[nH]c2ccccc12` [Tivantinib (ARQ 197)], the growth was 0.68 in the experiment with C. auris AR-384 (1 µM); 1.33 with C. auris AR-384 (10 µM); 0.76 with C. auris AR-386 (1 µM); 0.85 with C. auris AR-386 (10 µM); 0.75 in the experiment with C. auris AR-387 (1 µM); 0.78 in the experiment with C. auris AR-387 (10 µM).

Turning to `CN(C)CCCN1c2ccccc2Sc2ccc(Cl)cc21` [Chlorpromazine HCl], the growth with C. auris AR-384 (1 µM) is 0.84; in the experiment with C. auris AR-384 (10 µM), 0.84; in the experiment on C. auris AR-386 (1 µM), 0.97; in the experiment on C. auris AR-386 (10 µM), 1.27; in the experiment on C. auris AR-387 (1 µM), 1.26; in the experiment on C. auris AR-387 (10 µM), 1.15.

Turning to `Nc1ccn([C@@H]2O[C@H](CO)[C@@H](O)C2(F)F)c(=O)n1` [Gemcitabine HCl], the growth in the experiment on C. auris AR-384 (1 µM) was found to be 0.6; in the experiment on C. auris AR-384 (10 µM) it was 0.91; with C. auris AR-386 (1 µM), 0.89; with C. auris AR-386 (10 µM), 1.12; in the experiment on C. auris AR-387 (1 µM), 0.88; with C. auris AR-387 (10 µM) it was 0.79.

On to `C[N+](C)(C)CCO.[Cl-]` [Choline Chloride], for which the growth with C. auris AR-384 (1 µM) is 0.9; with C. auris AR-384 (10 µM) it was 1.26; with C. auris AR-386 (1 µM), 0.94; in the experiment with C. auris AR-386 (10 µM), 1.17; in the experiment with C. auris AR-387 (1 µM), 1.08; with C. auris AR-387 (10 µM) it was 1.04.

Consider `CCn1cc(C(=O)O)c(=O)c2ccc(C)nc21` [Nalidixic acid], for which the growth turned out to be 0.87 in the experiment with C. auris AR-384 (1 µM); 0.74 in the experiment with C. auris AR-384 (10 µM); 0.92 in the experiment with C. auris AR-386 (1 µM); 0.72 with C. auris AR-386 (10 µM); 1.15 in the experiment on C. auris AR-387 (1 µM); 0.85 in the experiment on C. auris AR-387 (10 µM).

For `CCCN(CCc1cccs1)[C@H]1CCc2c(O)cccc2C1` [Rotigotine], the growth in the experiment with C. auris AR-384 (1 µM) is 0.95; in the experiment on C. auris AR-384 (10 µM), 0.8; in the experiment on C. auris AR-386 (1 µM) it was 0.79; with C. auris AR-386 (10 µM), 0.94; in the experiment with C. auris AR-387 (1 µM), 0.94; in the experiment with C. auris AR-387 (10 µM), 0.96.

Regarding `CCCCC(=O)O[C@H]1CC[C@H]2[C@@H]3CCc4cc(O)ccc4[C@H]3CC[C@]12C` [Estradiol valerate], the growth with C. auris AR-384 (1 µM) was found to be 0.9; in the experiment with C. auris AR-384 (10 µM), 0.97; in the experiment with C. auris AR-386 (1 µM), 0.9; in the experiment with C. auris AR-386 (10 µM), 0.58; in the experiment with C. auris AR-387 (1 µM), 0.62; with C. auris AR-387 (10 µM) it was 1.03.

For the compound `CC[C@H]1[C@@H](O)[C@@H]2[C@H](CC[C@]3(C)[C@@H]([C@H](C)CCC(=O)O)CC[C@@H]23)[C@@]2(C)CC[C@@H](O)C[C@@H]12` [Obeticholic Acid], the growth in the experiment with C. auris AR-384 (1 µM) came to 0.8; with C. auris AR-384 (10 µM) it was 0.73; in the experiment on C. auris AR-386 (1 µM), 0.73; with C. auris AR-386 (10 µM), 1.06; in the experiment on C. auris AR-387 (1 µM), 0.72; in the experiment on C. auris AR-387 (10 µM), 1.07.

Consider `CC1=CC(=O)c2ccccc2C1=O` [Menadione], for which the growth with C. auris AR-384 (1 µM) was found to be 0.97; in the experiment on C. auris AR-384 (10 µM) it was 1.06; in the experiment with C. auris AR-386 (1 µM) it was 0.99; in the experiment with C. auris AR-386 (10 µM) it was 1.13; with C. auris AR-387 (1 µM), 0.73; in the experiment on C. auris AR-387 (10 µM) it was 1.24.

Consider `CCCCN(CCCC)CC(O)c1cc(Cl)cc2c1-c1ccc(Cl)cc1/C2=C/c1ccc(Cl)cc1` (stereo not given) [Lumefantrine], for which the growth in the experiment on C. auris AR-384 (1 µM) turned out to be 0.95; in the experiment on C. auris AR-384 (10 µM), 1.12; in the experiment on C. auris AR-386 (1 µM), 0.61; in the experiment on C. auris AR-386 (10 µM) it was 0.69; with C. auris AR-387 (1 µM), 0.76; in the experiment on C. auris AR-387 (10 µM) it was 0.82.

As to `CCCCCCCCCC(=O)N[C@@H](Cc1c[nH]c2ccccc12)C(=O)N[C@H](CC(N)=O)C(=O)N[C@@H](CC(=O)O)C(=O)N[C@@H]1C(=O)NCC(=O)N[C@@H](CCCN)C(=O)N[C@@H](CC(=O)O)C(=O)N[C@H](C)C(=O)N[C@@H](CC(=O)O)C(=O)NCC(=O)N[C@H](CO)C(=O)N[C@@H]([C@H](C)CC(=O)O)C(=O)N[C@@H](CC(=O)c2ccccc2N)C(=O)O[C@@H]1C` [Daptomycin], the growth in the experiment with C. auris AR-384 (1 µM) came out at 1.15; in the experiment with C. auris AR-384 (10 µM) it was 1.28; with C. auris AR-386 (1 µM), 1.02; in the experiment on C. auris AR-386 (10 µM) it was 1.23; in the experiment with C. auris AR-387 (1 µM), 1.24; in the experiment with C. auris AR-387 (10 µM), 1.18.

Consider `CN1C(C(=O)Nc2ccccn2)=C(O)c2sccc2S1(=O)=O` [Tenoxicam], for which the growth in the experiment with C. auris AR-384 (1 µM) is 0.87; in the experiment on C. auris AR-384 (10 µM), 0.85; in the experiment on C. auris AR-386 (1 µM) it was 0.66; in the experiment with C. auris AR-386 (10 µM) it was 0.84; with C. auris AR-387 (1 µM), 0.7; in the experiment on C. auris AR-387 (10 µM), 0.67.

With `O=C(O)CSCC(=O)NC1CCSC1=O` (stereo not given) [Erdosteine], the growth is 0.73 with C. auris AR-384 (1 µM); 0.99 with C. auris AR-384 (10 µM); 0.8 in the experiment on C. auris AR-386 (1 µM); 1.03 with C. auris AR-386 (10 µM); 0.9 in the experiment on C. auris AR-387 (1 µM); 0.76 in the experiment on C. auris AR-387 (10 µM).

For `O=c1oc2c(O)c(O)cc3c(=O)oc4c(O)c(O)cc1c4c23` [Ellagic acid], the growth turned out to be 0.79 in the experiment on C. auris AR-384 (1 µM); 0.81 in the experiment on C. auris AR-384 (10 µM); 1.16 in the experiment with C. auris AR-386 (1 µM); 1.11 in the experiment on C. auris AR-386 (10 µM); 1.16 in the experiment on C. auris AR-387 (1 µM); 1.19 in the experiment with C. auris AR-387 (10 µM).

Turning to `CCC(=O)OCC(=O)[C@@]1(OC(=O)CC)[C@@H](C)C[C@H]2[C@@H]3CCC4=CC(=O)C=C[C@]4(C)[C@@]3(F)[C@@H](O)C[C@@]21C` [Betamethasone Dipropionate], the growth with C. auris AR-384 (1 µM) was determined as 0.92; in the experiment with C. auris AR-384 (10 µM), 1.17; in the experiment on C. auris AR-386 (1 µM), 0.97; in the experiment with C. auris AR-386 (10 µM), 1; with C. auris AR-387 (1 µM), 0.8; with C. auris AR-387 (10 µM), 0.98.

On to `C=C[C@]1(C)C[C@@H](OC(=O)CSC(C)(C)CNC(=O)[C@H](N)C(C)C)[C@]2(C)[C@H](C)CC[C@]3(CCC(=O)[C@H]32)[C@@H](C)[C@@H]1O` [Valnemulin HCl], for which the growth with C. auris AR-384 (1 µM) turned out to be 1.04; in the experiment on C. auris AR-384 (10 µM), 1.08; in the experiment on C. auris AR-386 (1 µM), 1.14; with C. auris AR-386 (10 µM), 1.25; in the experiment with C. auris AR-387 (1 µM), 1.32; in the experiment with C. auris AR-387 (10 µM), 1.29.

As to `C[C@@H]1C[C@H]2[C@@H]3CCC4=CC(=O)C=C[C@]4(C)[C@@]3(Cl)[C@@H](O)C[C@]2(C)[C@@]1(OC(=O)c1ccco1)C(=O)CCl` [Mometasone furoate], the growth in the experiment with C. auris AR-384 (1 µM) is 0.82; in the experiment on C. auris AR-384 (10 µM), 0.79; in the experiment with C. auris AR-386 (1 µM), 0.66; in the experiment on C. auris AR-386 (10 µM) it was 0.8; in the experiment on C. auris AR-387 (1 µM), 0.6; in the experiment on C. auris AR-387 (10 µM) it was 0.88.

Take `CC(C)C[C@H](NC(=O)CNC(=O)c1cc(Cl)ccc1Cl)B(O)O` [Ixazomib (MLN2238)]: the growth was determined as 0.94 in the experiment with C. auris AR-384 (1 µM); 1.07 in the experiment with C. auris AR-384 (10 µM); 0.81 in the experiment on C. auris AR-386 (1 µM); 1.07 in the experiment with C. auris AR-386 (10 µM); 0.72 in the experiment with C. auris AR-387 (1 µM); 1.1 with C. auris AR-387 (10 µM).
